In patent US8771723B2, “Compositions for reducing gastro-intestinal methanogenesis in ruminants” (priority 2009, dated 2014):

Test: Feed intake, CO2/O2 exchange and heat production in respiration chambers
Type: in vivo, male Texel Cross lambs
Settings: measuring week in respiration chambers, main effect (Yes); for Feed intake: limit-fed
Method: After the adaptation period four animals (one block) were housed in indirect respiration calorimetry chambers for a week to determine gaseous exchange. In the following weeks a new block of sheep was introduced to the chambers each week. Each respiration chamber housed an individual sheep. The respiration calorimetry chambers used are described in detail in […] et al. (1987). […] Net production or consumption of these gases was calculated from the difference in concentrations between in and outgoing air multiplied by air flow and subsequently recalculated to standard circumstances (0° C., 101 kPa, no water vapour). […] Before morning feeding, orts were removed from the feed bins and weighed to determine voluntary feed intake. During the week in the respiration chambers, feed availability was restricted to 95% of the feed consumed by the animal consuming the least feed within a block in the week prior to housing in the respiration chambers. Feed restriction was applied to avoid interactions between the effect of the additives on DMI and the effect on methane production.

Compound	Feed intake [g/lamb/day]	CO2-production [l/kg^0.75/day]	Heat production [kJ/kg^0.75/day]	O2-consumption [l/kg^0.75/day]
O=S(=O)([O-])[O-].[Mg+2] [Sulphate, MgSO4 (anhydrous)]	2.38	26.1	555	26.3
5Ca(NO3)2•NH4NO3•10H2O [Nitrate]	2.38	24.9	527	25.0
